The list shows a part of the results.
Legend:
Assay in all cases: log2 fold change, soluble protein after heating vs DMSO (PISA); higher = thermal stabilisation; K562 lysate, 10 uM; active = over 0.2 and 3.5 SD of the protein, either way, in both replicates (recomputed)
lapatinib = compound: CS(=O)(=O)CCNCc1ccc(-c2ccc3ncnc(Nc4ccc(OCc5cccc(F)c5)c(Cl)c4)c3c2)o1 [lapatinib]
Outline: (§1)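 The values are log-two fold changes in thermal stability compared with solvent controls and come from duplicates. They were obtained by TMTpro 16plex LC-MS/MS, with channel sums equalised, on the supernatant after 21,000xg for 90 min. That supernatant came from crude K562 extract at 1 mg/mL protein treated with 10 μM compound for 30 min, heated for 3 min across 48°C-58°C, pooled and brought to 0.5% NP-40 at 4°C.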

Chains of the proteins cited; added tags and fusions are not shown. Lines headed by an entry give the natural chain unless they say otherwise; changes in a name come on top.
UniProt Q8NB49: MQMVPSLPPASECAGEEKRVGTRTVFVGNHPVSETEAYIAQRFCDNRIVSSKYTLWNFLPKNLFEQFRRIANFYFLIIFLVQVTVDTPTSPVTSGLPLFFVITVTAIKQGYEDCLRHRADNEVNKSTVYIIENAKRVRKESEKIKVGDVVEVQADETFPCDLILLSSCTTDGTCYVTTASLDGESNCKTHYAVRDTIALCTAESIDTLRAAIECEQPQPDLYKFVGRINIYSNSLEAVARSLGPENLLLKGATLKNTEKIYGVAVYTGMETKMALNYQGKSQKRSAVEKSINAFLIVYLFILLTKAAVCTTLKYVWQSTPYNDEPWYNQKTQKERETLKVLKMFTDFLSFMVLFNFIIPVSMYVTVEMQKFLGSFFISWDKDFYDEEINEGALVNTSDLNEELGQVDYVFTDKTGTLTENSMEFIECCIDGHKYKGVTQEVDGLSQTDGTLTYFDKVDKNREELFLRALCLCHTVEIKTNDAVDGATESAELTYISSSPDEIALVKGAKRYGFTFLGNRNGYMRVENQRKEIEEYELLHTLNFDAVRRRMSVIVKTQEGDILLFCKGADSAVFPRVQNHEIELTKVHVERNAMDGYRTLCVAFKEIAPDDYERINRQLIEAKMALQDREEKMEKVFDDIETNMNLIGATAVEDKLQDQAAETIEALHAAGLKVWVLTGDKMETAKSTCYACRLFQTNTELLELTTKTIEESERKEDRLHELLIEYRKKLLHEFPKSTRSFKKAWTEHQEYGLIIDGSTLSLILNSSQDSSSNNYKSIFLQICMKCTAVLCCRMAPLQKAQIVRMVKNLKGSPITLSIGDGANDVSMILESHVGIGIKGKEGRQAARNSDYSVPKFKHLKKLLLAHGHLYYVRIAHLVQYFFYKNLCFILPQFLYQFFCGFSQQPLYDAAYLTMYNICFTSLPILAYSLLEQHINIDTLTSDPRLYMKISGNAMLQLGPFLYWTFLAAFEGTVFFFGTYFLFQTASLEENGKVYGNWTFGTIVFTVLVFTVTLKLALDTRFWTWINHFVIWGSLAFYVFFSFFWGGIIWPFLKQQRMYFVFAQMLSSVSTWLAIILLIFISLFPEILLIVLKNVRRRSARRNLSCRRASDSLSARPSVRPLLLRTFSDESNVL
UniProt Q9BZE9, whole entry, looked up: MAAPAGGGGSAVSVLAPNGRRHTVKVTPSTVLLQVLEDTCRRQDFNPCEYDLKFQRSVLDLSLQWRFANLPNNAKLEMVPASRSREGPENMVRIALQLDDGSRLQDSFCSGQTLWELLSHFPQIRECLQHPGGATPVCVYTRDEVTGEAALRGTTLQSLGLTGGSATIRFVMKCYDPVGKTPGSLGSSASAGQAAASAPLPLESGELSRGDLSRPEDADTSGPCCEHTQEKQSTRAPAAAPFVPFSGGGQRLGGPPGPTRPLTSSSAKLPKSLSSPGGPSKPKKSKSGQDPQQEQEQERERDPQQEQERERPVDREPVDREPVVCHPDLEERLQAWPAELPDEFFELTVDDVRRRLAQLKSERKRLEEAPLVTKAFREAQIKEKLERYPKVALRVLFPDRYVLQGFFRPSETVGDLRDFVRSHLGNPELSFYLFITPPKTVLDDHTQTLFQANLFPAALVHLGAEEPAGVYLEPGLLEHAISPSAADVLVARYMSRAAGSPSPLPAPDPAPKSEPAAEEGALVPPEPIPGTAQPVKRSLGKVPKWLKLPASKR
UniProt Q96DT6: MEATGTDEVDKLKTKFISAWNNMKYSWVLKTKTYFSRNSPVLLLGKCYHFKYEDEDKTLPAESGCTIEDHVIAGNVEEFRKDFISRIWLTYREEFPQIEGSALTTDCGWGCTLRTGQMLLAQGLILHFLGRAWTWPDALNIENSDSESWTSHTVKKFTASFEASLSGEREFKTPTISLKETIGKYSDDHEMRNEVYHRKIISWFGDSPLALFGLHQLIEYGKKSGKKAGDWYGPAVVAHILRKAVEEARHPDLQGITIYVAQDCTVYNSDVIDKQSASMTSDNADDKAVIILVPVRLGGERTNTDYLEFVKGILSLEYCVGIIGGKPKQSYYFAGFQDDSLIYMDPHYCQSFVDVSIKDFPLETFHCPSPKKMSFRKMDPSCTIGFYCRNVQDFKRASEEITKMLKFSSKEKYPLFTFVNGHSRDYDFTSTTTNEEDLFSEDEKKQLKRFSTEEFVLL
UniProt O00244: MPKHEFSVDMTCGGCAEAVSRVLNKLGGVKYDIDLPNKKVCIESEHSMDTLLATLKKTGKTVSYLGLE
UniProt O15169, whole entry, looked up: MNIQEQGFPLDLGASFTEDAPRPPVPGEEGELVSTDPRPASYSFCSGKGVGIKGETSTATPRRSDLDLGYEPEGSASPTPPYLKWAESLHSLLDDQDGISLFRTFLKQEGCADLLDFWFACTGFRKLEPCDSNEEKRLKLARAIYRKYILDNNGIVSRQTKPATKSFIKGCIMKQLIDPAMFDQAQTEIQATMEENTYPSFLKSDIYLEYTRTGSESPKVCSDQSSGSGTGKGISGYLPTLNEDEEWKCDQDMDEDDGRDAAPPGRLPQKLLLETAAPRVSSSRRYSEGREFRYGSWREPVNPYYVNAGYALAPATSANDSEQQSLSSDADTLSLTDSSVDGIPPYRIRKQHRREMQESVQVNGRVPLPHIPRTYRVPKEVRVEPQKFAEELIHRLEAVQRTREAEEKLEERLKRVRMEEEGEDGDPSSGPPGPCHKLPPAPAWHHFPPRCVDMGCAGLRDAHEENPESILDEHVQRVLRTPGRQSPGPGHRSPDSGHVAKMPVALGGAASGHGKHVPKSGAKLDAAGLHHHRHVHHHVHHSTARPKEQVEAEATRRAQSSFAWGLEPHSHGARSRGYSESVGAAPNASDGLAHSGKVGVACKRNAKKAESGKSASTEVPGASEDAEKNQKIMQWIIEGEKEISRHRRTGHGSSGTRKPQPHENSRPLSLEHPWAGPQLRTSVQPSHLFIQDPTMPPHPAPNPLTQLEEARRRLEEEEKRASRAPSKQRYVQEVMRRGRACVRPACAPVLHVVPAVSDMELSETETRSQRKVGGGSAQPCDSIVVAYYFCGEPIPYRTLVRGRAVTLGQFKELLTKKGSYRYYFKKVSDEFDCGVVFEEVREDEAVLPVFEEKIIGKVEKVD
UniProt Q7Z3C6: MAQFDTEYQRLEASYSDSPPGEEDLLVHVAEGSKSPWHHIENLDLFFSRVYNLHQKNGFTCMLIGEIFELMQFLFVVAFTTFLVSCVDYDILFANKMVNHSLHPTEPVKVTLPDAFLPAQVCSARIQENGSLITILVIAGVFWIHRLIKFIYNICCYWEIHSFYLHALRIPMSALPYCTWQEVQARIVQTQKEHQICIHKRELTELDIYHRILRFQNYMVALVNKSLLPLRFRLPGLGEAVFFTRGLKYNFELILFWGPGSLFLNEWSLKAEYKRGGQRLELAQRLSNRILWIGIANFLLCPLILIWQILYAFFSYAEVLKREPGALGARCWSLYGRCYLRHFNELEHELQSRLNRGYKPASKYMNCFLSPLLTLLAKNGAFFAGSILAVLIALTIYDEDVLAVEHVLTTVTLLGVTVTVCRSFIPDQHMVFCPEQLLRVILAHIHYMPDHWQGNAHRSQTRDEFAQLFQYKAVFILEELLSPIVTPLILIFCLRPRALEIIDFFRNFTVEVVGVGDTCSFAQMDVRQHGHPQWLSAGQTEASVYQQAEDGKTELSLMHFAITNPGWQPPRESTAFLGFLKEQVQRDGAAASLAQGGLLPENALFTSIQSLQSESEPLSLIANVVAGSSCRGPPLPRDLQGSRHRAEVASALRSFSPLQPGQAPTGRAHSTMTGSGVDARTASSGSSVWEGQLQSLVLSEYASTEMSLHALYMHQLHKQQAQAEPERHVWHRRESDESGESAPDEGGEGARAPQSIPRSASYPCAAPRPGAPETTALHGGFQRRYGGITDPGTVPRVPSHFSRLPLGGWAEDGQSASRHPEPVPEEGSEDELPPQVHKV
UniProt P38606, whole entry, looked up: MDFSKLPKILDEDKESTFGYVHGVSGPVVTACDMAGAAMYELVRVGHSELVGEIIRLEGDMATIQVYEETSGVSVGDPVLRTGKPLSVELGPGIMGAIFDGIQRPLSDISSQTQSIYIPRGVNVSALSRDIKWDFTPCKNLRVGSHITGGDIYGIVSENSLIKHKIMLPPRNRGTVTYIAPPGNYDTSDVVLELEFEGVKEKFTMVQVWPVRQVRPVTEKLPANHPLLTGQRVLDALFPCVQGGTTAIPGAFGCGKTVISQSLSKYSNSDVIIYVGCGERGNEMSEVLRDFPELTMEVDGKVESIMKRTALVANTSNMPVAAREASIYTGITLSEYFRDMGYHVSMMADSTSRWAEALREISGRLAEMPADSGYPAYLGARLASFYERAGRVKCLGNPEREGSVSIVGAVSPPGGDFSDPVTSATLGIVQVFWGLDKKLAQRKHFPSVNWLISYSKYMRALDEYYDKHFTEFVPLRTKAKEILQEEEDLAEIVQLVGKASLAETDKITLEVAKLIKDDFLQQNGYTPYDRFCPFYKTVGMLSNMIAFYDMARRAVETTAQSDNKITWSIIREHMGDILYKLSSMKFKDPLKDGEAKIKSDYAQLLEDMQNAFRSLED
UniProt Q5T9A4: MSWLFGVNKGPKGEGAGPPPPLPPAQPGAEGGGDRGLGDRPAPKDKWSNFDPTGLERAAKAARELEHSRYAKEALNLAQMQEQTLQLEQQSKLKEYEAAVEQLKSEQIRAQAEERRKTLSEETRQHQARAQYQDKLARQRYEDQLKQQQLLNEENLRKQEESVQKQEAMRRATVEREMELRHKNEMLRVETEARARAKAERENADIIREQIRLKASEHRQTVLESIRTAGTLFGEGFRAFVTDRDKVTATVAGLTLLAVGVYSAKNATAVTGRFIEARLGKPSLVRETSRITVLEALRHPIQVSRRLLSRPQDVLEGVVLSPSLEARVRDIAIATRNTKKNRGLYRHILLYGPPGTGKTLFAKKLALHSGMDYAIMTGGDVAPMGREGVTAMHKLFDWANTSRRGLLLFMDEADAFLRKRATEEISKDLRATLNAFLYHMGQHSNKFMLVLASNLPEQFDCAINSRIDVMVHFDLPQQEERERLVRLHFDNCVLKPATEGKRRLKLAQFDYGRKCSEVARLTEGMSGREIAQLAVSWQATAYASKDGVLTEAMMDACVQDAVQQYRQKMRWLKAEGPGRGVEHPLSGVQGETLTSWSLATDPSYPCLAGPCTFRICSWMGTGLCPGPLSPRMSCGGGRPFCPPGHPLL

pictilisib = compound: CS(=O)(=O)N1CCN(Cc2cc3nc(-c4cccc5[nH]ncc45)nc(N4CCOCC4)c3s2)CC1 [pictilisib]
Outline: as §1

crizotinib = compound: C[C@@H](Oc1cc(-c2cnn(C3CCNCC3)c2)cnc1N)c1c(Cl)ccc(F)c1Cl [crizotinib]
Outline: as §1

[1] = compound: C[C@H](C1=CC=C(C=C1)C(=O)NC2=C3C=CNC3=NC=C2)N
Outline: as §1

duvelisib = compound: C[C@H](Nc1ncnc2nc[nH]c12)c1cc2cccc(Cl)c2c(=O)n1-c1ccccc1 [duvelisib]
Outline: as §1

gandotinib = compound: Cc1cc(Nc2cc(CN3CCOCC3)c3nc(C)c(Cc4ccc(Cl)cc4F)n3n2)n[nH]1 [gandotinib]
Outline: as §1

tozasertib = compound: Cc1cc(Nc2cc(N3CCN(C)CC3)nc(Sc3ccc(NC(=O)C4CC4)cc3)n2)n[nH]1 [tozasertib]
Outline: as §1

doramapimod = compound: Cc1ccc(-n2nc(C(C)(C)C)cc2NC(=O)Nc2ccc(OCCN3CCOCC3)c3ccccc23)cc1 [doramapimod]
Outline: as §1

bafetinib = compound: Cc1ccc(NC(=O)c2ccc(CN3CC[C@H](N(C)C)C3)c(C(F)(F)F)c2)cc1Nc1nccc(-c2cncnc2)n1 [bafetinib]
Outline: as §1

[2] = compound: Cc1cccc(CC(=O)N2CCc3c2ccc(-c2cn(C)c4ncnc(N)c24)c3F)n1
Outline: as §1

nilotinib = compound: Cc1cn(-c2cc(NC(=O)c3ccc(C)c(Nc4nccc(-c5cccnc5)n4)c3)cc(C(F)(F)F)c2)cn1 [nilotinib]
Outline: as §1

[3] = compound: Cc1nc(Nc2n[nH]c3c2CN(C(=O)N[C@H](CN(C)C)c2ccccc2)C3(C)C)c2sccc2n1
Outline: as §1

dasatinib = compound: Cc1nc(Nc2ncc(C(=O)Nc3c(C)cccc3Cl)s2)cc(N2CCN(CCO)CC2)n1 [dasatinib]
Outline: as §1

[4] = compound: Cc1ncc(-c2ccnc(Nc3ccc(S(C)(=O)=O)cc3)n2)n1C(C)C
Outline: as §1

[5] = compound: Cn1cc(-c2ccc3c(c2)CCN3C(=O)Cc2cccc(C(F)(F)F)c2)c2c(N)ncnc21
Outline: as §1

quisinostat = compound: Cn1cc(CNCC2CCN(c3ncc(C(=O)NO)cn3)CC2)c2ccccc21 [quisinostat]
Outline: as §1

tipifarnib = compound: Cn1cncc1[C@@](N)(c1ccc(Cl)cc1)c1ccc2c(c1)c(-c1cccc(Cl)c1)cc(=O)n2C [tipifarnib]
Outline: as §1

[6] = compound: NC(=O)Nc1cc(-c2cccc(F)c2)sc1C(=O)N[C@H]1CCCNC1
Outline: as §1

[7] = compound: NC(=O)c1cnc(N[C@@H]2CCCC[C@@H]2N)nc1Nc1cccc(-n2nccn2)c1
Outline: as §1

[8] = compound: NC1(c2ccc(-c3nc4ccn5c(=O)[nH]nc5c4cc3-c3ccccc3)cc2)CCC1
Outline: as §1

## ATP11C (UniProt Q8NB49)
lapatinib
  log2 fold change: inactive: -0.027
pictilisib
  log2 fold change: inactive: 0.007
crizotinib
  log2 fold change: inactive: 0.004
[1]
  log2 fold change: inactive: 0.016
duvelisib
  log2 fold change: inactive: 0.001
gandotinib
  log2 fold change: inactive: 0.009
tozasertib
  log2 fold change: inactive: 0.011
doramapimod
  log2 fold change: inactive: 0.007
bafetinib
  log2 fold change: inactive: -0.041
[2]
  log2 fold change: inactive: 0.018
nilotinib
  log2 fold change: inactive: -0.003
[3]
  log2 fold change: inactive: 0.007
dasatinib
  log2 fold change: inactive: 0.024
[4]
  log2 fold change: inactive: 0.023
[5]
  log2 fold change: inactive: -0.006
quisinostat
  log2 fold change: inactive: -0.002
tipifarnib
  log2 fold change: inactive: -0.026
[6]
  log2 fold change: inactive: -0.002
[7]
  log2 fold change: inactive: 0.016
[8]
  log2 fold change: inactive: -0.051

## ASPSCR1 (UniProt Q9BZE9)
lapatinib
  log2 fold change: inactive: -0.026
pictilisib
  log2 fold change: inactive: -0.025
crizotinib
  log2 fold change: inactive: 0.014
[1]
  log2 fold change: inactive: 0.008
duvelisib
  log2 fold change: inactive: 0.015
gandotinib
  log2 fold change: inactive: -0.014
tozasertib
  log2 fold change: inactive: 0.036
doramapimod
  log2 fold change: inactive: -0.003
bafetinib
  log2 fold change: inactive: 0.003
[2]
  log2 fold change: inactive: 0.035
nilotinib
  log2 fold change: inactive: 0.014
[3]
  log2 fold change: inactive: -0.03
dasatinib
  log2 fold change: inactive: -0.002
[4]
  log2 fold change: inactive: -0.007
[5]
  log2 fold change: inactive: 0.018
quisinostat
  log2 fold change: inactive: -0.019
tipifarnib
  log2 fold change: inactive: 0.004
[6]
  log2 fold change: inactive: -0.01
[7]
  log2 fold change: inactive: 0.025
[8]
  log2 fold change: inactive: 0.025

## ATG4C (UniProt Q96DT6)
lapatinib
  log2 fold change: inactive: 0
pictilisib
  log2 fold change: inactive: -0.029
crizotinib
  log2 fold change: inactive: 0.017
[1]
  log2 fold change: inactive: 0.022
duvelisib
  log2 fold change: inactive: 0.026
gandotinib
  log2 fold change: inactive: 0.015
tozasertib
  log2 fold change: inactive: 0.001
doramapimod
  log2 fold change: inactive: 0.014
bafetinib
  log2 fold change: inactive: 0.05
[2]
  log2 fold change: inactive: 0.023
nilotinib
  log2 fold change: inactive: -0.03
[3]
  log2 fold change: inactive: 0.079
dasatinib
  log2 fold change: inactive: 0.033
[4]
  log2 fold change: inactive: -0.026
[5]
  log2 fold change: inactive: 0.011
quisinostat
  log2 fold change: inactive: 0
tipifarnib
  log2 fold change: inactive: -0.016
[6]
  log2 fold change: inactive: 0.01
[7]
  log2 fold change: inactive: 0.025
[8]
  log2 fold change: inactive: -0.007

## ATOX1 (UniProt O00244)
lapatinib
  log2 fold change: inactive: -0.005
pictilisib
  log2 fold change: inactive: -0.05
crizotinib
  log2 fold change: inactive: -0.065
[1]
  log2 fold change: inactive: 0.004
duvelisib
  log2 fold change: inactive: -0.005
gandotinib
  log2 fold change: inactive: 0.073
tozasertib
  log2 fold change: inactive: -0.004
doramapimod
  log2 fold change: inactive: -0.066
bafetinib
  log2 fold change: inactive: -0.117
[2]
  log2 fold change: inactive: -0.074
nilotinib
  log2 fold change: inactive: 0.141
[3]
  log2 fold change: inactive: 0.04
dasatinib
  log2 fold change: inactive: -0.015
[4]
  log2 fold change: inactive: 0.131
[5]
  log2 fold change: inactive: -0.041
quisinostat
  log2 fold change: inactive: -0.051
tipifarnib
  log2 fold change: inactive: 0.168
[6]
  log2 fold change: inactive: 0.027
[7]
  log2 fold change: inactive: -0.072
[8]
  log2 fold change: inactive: 0.019

## AXIN1 (UniProt O15169)
lapatinib
  log2 fold change: inactive: -0.072
pictilisib
  log2 fold change: inactive: -0.045
crizotinib
  log2 fold change: inactive: -0.139
[1]
  log2 fold change: inactive: 0.032
duvelisib
  log2 fold change: inactive: 0.209
gandotinib
  log2 fold change: inactive: -0.016
tozasertib
  log2 fold change: inactive: -0.083
doramapimod
  log2 fold change: inactive: 0.006
bafetinib
  log2 fold change: inactive: 0.045
[2]
  log2 fold change: inactive: 0.078
nilotinib
  log2 fold change: inactive: -0.042
[3]
  log2 fold change: inactive: -0.1
dasatinib
  log2 fold change: inactive: 0.078
[4]
  log2 fold change: inactive: -0.02
[5]
  log2 fold change: inactive: -0.15
quisinostat
  log2 fold change: inactive: -0.249
tipifarnib
  log2 fold change: inactive: -0.058
[6]
  log2 fold change: inactive: 0.072
[7]
  log2 fold change: inactive: 0
[8]
  log2 fold change: inactive: -0.252

## ATG9A (UniProt Q7Z3C6)
lapatinib
  log2 fold change: inactive: -0.019
pictilisib
  log2 fold change: inactive: 0.015
crizotinib
  log2 fold change: inactive: 0.025
[1]
  log2 fold change: inactive: -0.018
duvelisib
  log2 fold change: inactive: 0.025
gandotinib
  log2 fold change: inactive: 0.012
tozasertib
  log2 fold change: inactive: -0.027
doramapimod
  log2 fold change: inactive: 0.012
bafetinib
  log2 fold change: inactive: -0.054
[2]
  log2 fold change: inactive: 0.019
nilotinib
  log2 fold change: inactive: -0.023
[3]
  log2 fold change: inactive: -0.009
dasatinib
  log2 fold change: inactive: 0.029
[4]
  log2 fold change: inactive: 0
[5]
  log2 fold change: inactive: 0
quisinostat
  log2 fold change: inactive: -0.021
tipifarnib
  log2 fold change: inactive: 0.107
[6]
  log2 fold change: inactive: -0.022
[7]
  log2 fold change: inactive: 0.032
[8]
  log2 fold change: inactive: -0.054

## ATP6V1A (UniProt P38606)
lapatinib
  log2 fold change: inactive: -0.019
pictilisib
  log2 fold change: inactive: 0.016
crizotinib
  log2 fold change: inactive: 0.032
[1]
  log2 fold change: inactive: -0.003
duvelisib
  log2 fold change: inactive: 0.001
gandotinib
  log2 fold change: inactive: 0.007
tozasertib
  log2 fold change: inactive: 0.003
doramapimod
  log2 fold change: inactive: 0.023
bafetinib
  log2 fold change: inactive: -0.006
[2]
  log2 fold change: inactive: -0.014
nilotinib
  log2 fold change: inactive: 0.007
[3]
  log2 fold change: inactive: -0.003
dasatinib
  log2 fold change: inactive: -0.007
[4]
  log2 fold change: inactive: 0.004
[5]
  log2 fold change: inactive: -0.018
quisinostat
  log2 fold change: inactive: 0.041
tipifarnib
  log2 fold change: inactive: 0.012
[6]
  log2 fold change: inactive: -0.019
[7]
  log2 fold change: inactive: 0.001
[8]
  log2 fold change: inactive: 0.026

## ATAD3B (UniProt Q5T9A4)
lapatinib
  log2 fold change: inactive: 0.003
pictilisib
  log2 fold change: inactive: -0.035
crizotinib
  log2 fold change: inactive: -0.091
[1]
  log2 fold change: active: 0.308
duvelisib
  log2 fold change: inactive: 0.007
gandotinib
  log2 fold change: inactive: -0.169
tozasertib
  log2 fold change: inactive: 0.014
doramapimod
  log2 fold change: inactive: 0.003
bafetinib
  log2 fold change: inactive: -0.074
[2]
  log2 fold change: inactive: -0.129
nilotinib
  log2 fold change: inactive: -0.017
[3]
  log2 fold change: inactive: 0.019
dasatinib
  log2 fold change: inactive: 0.01
[4]
  log2 fold change: inactive: -0.026
[5]
  log2 fold change: inactive: 0.046
quisinostat
  log2 fold change: inactive: 0.018
tipifarnib
  log2 fold change: inactive: -0.004
[6]
  log2 fold change: inactive: 0.051
[7]
  log2 fold change: inactive: -0.006
[8]
  log2 fold change: inactive: 0.006

Reference: the supplement of paper PMC10849652
